# Test results from PubChem BioAssay AID1362 (SRMLSC, 2008).
# The list shows a part of the results.
# Assay: growth inhibition of WT strain, primary screen, mitochondrial fusion inhibitor project, WT and mutant strains, chemical genetic (AID 1362); note: tested in S. cerevisiae
# Conditions: mitochondrial fusion phenotypic screen, at 10 µM
row,SMILES,inhibition [%]
1,CCOC(=O)N1CCC(Nc2ccc(OC)cc2)CC1,20
2,O=C(OC1CN2CCC1CC2)C1c2ccccc2Oc2ccccc21 (centres undefined),-2.33
3,COc1ccc(C(=O)NCC2(N3CCCCC3)CCCCC2)c(OC)c1OC,7.24
4,COc1ccc(NC2CCN(CCc3ccccc3)CC2)c(OC)c1,2.65
5,COc1ccc(NC2CCN(C(=O)OC(C)(C)C)CC2)cc1,-2.9
6,CN1CCN(CCOC(=O)C(O)(c2ccccc2)c2ccccc2)CC1,18.6
7,O=C(NCC1(N2CCOCC2)CCCCC1)c1cc(=O)[nH]c2ccccc12,-0.89
8,O=C(NCC1(N2CCCCC2)CCCCC1)c1cccc([N+](=O)[O-])c1,10.5
9,N#CC1(Nc2ccccc2)CCN(CCc2ccccc2)CC1,2.91
10,COc1ccc(CN(CCCl)CCCl)cc1Cl,3.22
11,CN(C)c1cccc(C(=O)NCC2(N3CCCCC3)CCCCC2)c1,6.79
12,CC(C)c1ccc(NC2CCN(C(=O)OC(C)(C)C)CC2)cc1,4.2
13,O=C(OC1CN2CCC1CC2)C1c2ccccc2C=Cc2ccccc21 (centres undefined),-5.49
14,N/C(=N\O)c1c(N)no[n+]1[O-],20.7
15,COc1ccc(C(=O)NCC2(N3CCOCC3)CCCCC2)cc1OC,1.7
16,c1ccc(CN2CCC(Nc3ccccc3)CC2)cc1,22.8
17,N#Cc1ccc(C(=O)NCC2(N3CCCCC3)CCCCC2)cc1,-14.3
18,CN(C)c1ccc(C(=O)NCC2(N3CCCCC3)CCCCC2)cc1,6.44
19,CCN1CCC(Nc2cccc(F)c2)CC1,-1.04
20,Fc1ccccc1NC1CCN(Cc2ccccc2)CC1,2.88
21,CCC(CO)(C(=O)OC1CN2CCC1CC2)c1ccccc1 (centres undefined),6.96
22,COc1cc(OC)cc(C(=O)NCC2(N3CCOCC3)CCCCC2)c1,25.5
23,CC(C)(C)OC(=O)N1CCC(Nc2ccccc2)CC1,21.6
24,CCOc1ncccc1C(=O)NCC1(N2CCOCC2)CCCCC1,-11.6
